{"source": "paper PMC6393240", "about": "“DNA replication initiation in Bacillus subtilis: structural and functional characterization of the essential DnaA–DnaD interaction” (Nucleic Acids Research, 2018)", "system": "DnaD DDBH2 + DnaA domain I", "assay": "NMR", "settings": "15N HSQC CSP titrations up to 8:1 with ssDNA 800 uM, ternary complex; NMR: 100 uM 15N protein, up to 8:1 partner, 800 uM ssDNA; recombinant protein; single-stranded DNA", "note": "For at least one entry, the source does not settle the construct or the ends of the probe. At least one verdict was read from the data and is not stated in words by the source."}
{"sequence": "GTTATTGCTC [10-mer ssDNA]", "values": [{"measurement": "binding result", "value": "binds"}]}
